# Measured values reported in PubChem BioAssay AID485314 (National Center for Advancing Translational Sciences (NCATS), 2010).
# Among all 340,000 compounds or so, about 4,500 (1.3%) were called active. The inconclusive results got no clear call from the source; some entries with a clear call stand among them for comparison. Calls come from the whole dose curve; as a rule, active = well fitted inhibition curve with a large enough effect; inconclusive = small, poorly fitted or top-dose-only effect, or another doubt; inactive = no such curve, though single readings can be large or run the other way. Where the call is inconclusive, the potency comes from a doubtful curve fit.
# Biological target: DNA polymerase beta (Homo sapiens) (UniProt P06746)
# Assay: qHTS Assay for Inhibitors of DNA Polymerase Beta
# Settings: Pol beta primer extension/strand displacement, fluorescence kinetic; activity change, negative = inhibition: at 114 µM (top of the series)
# In short: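 Preincubation: enzyme (10 nM) with compound, 15 min, RT. Reaction: substrate added to 50 nM final. Reads: 0 and 10 min. Analysis: normalized, Hill fit.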
# % is set by controls: 0 for no effect and ±100 for the full control effect; potency is the fitted concentration of half-maximal effect.
Compound,Potency,"activity change, negative = inhibition"
Cn1cccc1/C=C1\SC(=S)N(NC(=O)c2ccccc2O)C1=O,inactive,–
COc1ccc(-c2[nH]c3ccccc3c2SCCNC(=O)c2cc(OC)c(OC)c(OC)c2)cc1,inactive,–
CCCSc1nc2c(c(=O)[nH]c(=O)n2C)n1CC(O)COc1ccccc1 (centres undefined),"inconclusive: 5.62 µM [inhibitor, full curve]",–
CC1(C(=O)N/N=C/c2ccc([N+](=O)[O-])o2)CC1(Br)Br (centres undefined),"inconclusive: 89.1 µM [inhibitor, single point]",–
CCOc1ccc(S(=O)(=O)NCCc2sc3nc(-c4ccc(F)cc4)nn3c2C)cc1,inactive,–
CC1CCN(S(=O)(=O)c2ccc(NC(=O)CN3CCCC3)cc2)CC1,inactive,–
CCC1CCCCN1S(=O)(=O)c1ccc(C(=O)Nc2sc3c(c2C(=O)NC)CCC3)cc1 (centres undefined),inactive,–
COc1ccc(OCC(=O)OCc2cc(=O)n3cc(C)sc3n2)cc1,inactive,–
O=C(O)COc1ccccc1C1C2C(=O)N(c3ccccc3)C(=O)C2ON1c1ccccc1 (centres undefined),"inconclusive: 50.1 µM [inhibitor, partial curve]",–
COc1ccc(NC(=O)c2cc3nc(-c4ccc(C)c(C)c4)cc(C(F)(F)F)n3n2)cc1,inactive,–
COc1cc(/C=C2/NC(=O)N(CC(=O)Nc3cccc(C)c3)C2=O)ccc1OCC(N)=O,"inconclusive: 50.1 µM [inhibitor, partial curve]",–
CC(C)Cn1cc(C(=O)NCCCN2CCCC2=O)c2c3ccccc3n(C)c2c1=O,"inconclusive: 1.12 µM [inhibitor, full curve]",–
CCc1ccc(C(=O)NNC(=O)c2ccc(=O)n(C)n2)cc1,–,inconclusive: -30.3% [inhibitor]
COc1ccc(CN(C(=O)/C=C/c2ccco2)C2CCS(=O)(=O)C2)cc1 (centres undefined),active: 20 µM,–
CC(C)C(NC(=O)C(C)N1C(=O)c2ccccc2C1=O)c1ccccc1 (centres undefined),"inconclusive: 100 µM [inhibitor, single point]",–
C=CCn1c(SCC(=O)NCCCC)nc2scc(-c3ccco3)c2c1=O,active: 22.4 µM,–
Cc1ccc(CSc2ncc(Cl)c(C(=O)NCCc3ccc(S(N)(=O)=O)cc3)n2)cc1,"inconclusive: 22.4 µM [inhibitor, single point]",–
N#Cc1ccccc1/C=N/Nc1nc(-c2ccccc2)c2cc(Br)ccc2n1,"inconclusive: 2.82 µM [inhibitor, single point]",–
Cc1ccccc1NC(=O)CSc1nc(-c2ccccc2C)nc2cc(=O)[nH]n12,"inconclusive: 70.8 µM [inhibitor, single point]",–
COc1ccc(OC)c(C(=O)N(C)C2CCCN(Cc3ccccc3F)C2)c1 (centres undefined),"inconclusive: 15.8 µM [inhibitor, single point]",–
CCOc1ccc(NC(=O)N2CCN(S(=O)(=O)c3ccc4c(ccn4C)c3)CC2)cc1,inactive,–
CCc1ccc(C(=O)c2cn(CC(=O)Nc3ccc(F)cc3)c3ccc(OC)cc3c2=O)cc1,"inconclusive: 0.447 µM [inhibitor, full curve, poor fit]",–
COc1ccc(Cl)cc1NC(=O)CCS(=O)(=O)c1cc2c(cc1C)NC(=O)CO2,"inconclusive: 0.158 µM [inhibitor, full curve]",–

Compound,Potency,"activity change, negative = inhibition"
CCNc1ccccc(-c2ccc3ccccc3n2)c1=O,"inconclusive: 79.4 µM [inhibitor, single point]",–
O=C(Cn1nnc(-c2ccc(Cl)cc2)n1)NCc1ccco1,"inconclusive: 12.6 µM [inhibitor, full curve, poor fit]",–
Cc1ccc(CSc2nnc(SCC(=O)N/N=C/c3ccc(C(=O)O)cc3)s2)cc1,–,inconclusive: -31.8% [inhibitor]
COc1ccc(CCn2c(=S)[nH]c3ccc(N4CCOCC4)cc3c2=O)cc1OC,"inconclusive: 10 µM [inhibitor, full curve]",–
O=C(Nc1ccc2c(c1)OCO2)c1cc2nc(C3CC3)cc(C(F)(F)F)n2n1,active: 39.8 µM,–
COCCN1C(=O)C(CC(=O)Nc2ccc(C(=O)O)cc2)SC1=Nc1ccccc1 (centres undefined),inactive,–
Cc1cc(C)c(NC(=O)C(C)n2nc(-c3ccc(C)c(C)c3)ccc2=O)c(C)c1 (centres undefined),"inconclusive: 56.2 µM [inhibitor, partial curve, poor fit]",–
CC(C)(C)OC(=O)N1CC(O)CC1C(=O)OCC(=O)c1ccccc1 (centres undefined),"inconclusive: 89.1 µM [inhibitor, single point]",–
Cc1ccc(C(=O)OCC(=O)c2ccc[nH]2)s1,"inconclusive: 89.1 µM [inhibitor, single point]",–
Cc1c(Cl)ccc2c(C(=O)O)cc(-c3ccccc3)nc12,inactive,–
O=C(COc1ccc2c3c(c(=O)oc2c1)CCC3)NCc1ccncc1,"inconclusive: 0.141 µM [inhibitor, full curve, poor fit]",–
COc1ccc2[nH]c(C)c(CCNS(=O)(=O)c3cc(F)ccc3OC)c2c1,"inconclusive: 10 µM [inhibitor, partial curve]",–
O=C(N/N=C/c1c(O)n(-c2ccc(Cl)cn2)c(=O)c2ccccc12)c1ccncc1,"inconclusive: 11.2 µM [inhibitor, partial curve, poor fit]",–
CC(=O)c1cccc(NC(=O)Cc2cccs2)c1,active: 31.6 µM,–
CC1=NN(C(=O)CSCc2ccccc2)C(O)(c2ccc(F)cc2)C1 (centres undefined),"inconclusive: 89.1 µM [inhibitor, single point]",–
Cc1ccc(NC(=O)CN2C(=O)S/C(=C/c3ccc(O)c([N+](=O)[O-])c3)C2=O)cc1C,active: 89.1 µM,–
Cc1ccc(CN2C(=O)c3ccccc3NC2c2ccccn2)cc1 (centres undefined),"inconclusive: 79.4 µM [inhibitor, partial curve, poor fit]",–
CC(=O)NNc1nc(-c2ccccc2)c2cc(Br)ccc2n1,"inconclusive: 44.7 µM [inhibitor, partial curve]",–
CCOC(=O)C1CCN(C(=O)Cn2nc(C)n3c(cc4cc(F)ccc43)c2=O)CC1,–,inconclusive: -52.5% [inhibitor]
CCOC(=O)C1CCCN(C(=O)c2ccc([N+](=O)[O-])cc2)C1 (centres undefined),"inconclusive: 89.1 µM [inhibitor, single point]",–
COc1cc(NC(=O)N2CCC(CN3CCCC3)CC2)cc(OC)c1OC,"inconclusive: 0.562 µM [inhibitor, full curve, poor fit]",–
CCC(C)NC(=S)N1CCN(C(c2ccccc2)c2ccccc2)CC1 (centres undefined),"inconclusive: 39.8 µM [inhibitor, single point]",–
CCOC(=O)C1(CCc2ccccc2)CCN(Cc2ccc(OC)cc2)CC1,"inconclusive: 89.1 µM [inhibitor, single point]",–

# An excerpt from above in order of SMILES length, descending.
Compound,Potency,"activity change, negative = inhibition"
COc1ccc(-c2[nH]c3ccccc3c2SCCNC(=O)c2cc(OC)c(OC)c(OC)c2)cc1,inactive,–
CCC1CCCCN1S(=O)(=O)c1ccc(C(=O)Nc2sc3c(c2C(=O)NC)CCC3)cc1 (centres undefined),inactive,–
O=C(N/N=C/c1c(O)n(-c2ccc(Cl)cn2)c(=O)c2ccccc12)c1ccncc1,"inconclusive: 11.2 µM [inhibitor, partial curve, poor fit]",–
CCOc1ccc(NC(=O)N2CCN(S(=O)(=O)c3ccc4c(ccn4C)c3)CC2)cc1,inactive,–
CCOC(=O)C1CCN(C(=O)Cn2nc(C)n3c(cc4cc(F)ccc43)c2=O)CC1,–,inconclusive: -52.5% [inhibitor]
CCOc1ccc(S(=O)(=O)NCCc2sc3nc(-c4ccc(F)cc4)nn3c2C)cc1,inactive,–
Cc1ccc(CSc2nnc(SCC(=O)N/N=C/c3ccc(C(=O)O)cc3)s2)cc1,–,inconclusive: -31.8% [inhibitor]
CC(C)Cn1cc(C(=O)NCCCN2CCCC2=O)c2c3ccccc3n(C)c2c1=O,"inconclusive: 1.12 µM [inhibitor, full curve]",–
COc1ccc(CCn2c(=S)[nH]c3ccc(N4CCOCC4)cc3c2=O)cc1OC,"inconclusive: 10 µM [inhibitor, full curve]",–
N#Cc1ccccc1/C=N/Nc1nc(-c2ccccc2)c2cc(Br)ccc2n1,"inconclusive: 2.82 µM [inhibitor, single point]",–
COc1ccc(OC)c(C(=O)N(C)C2CCCN(Cc3ccccc3F)C2)c1 (centres undefined),"inconclusive: 15.8 µM [inhibitor, single point]",–
CC(C)(C)OC(=O)N1CC(O)CC1C(=O)OCC(=O)c1ccccc1 (centres undefined),"inconclusive: 89.1 µM [inhibitor, single point]",–
COc1cc(NC(=O)N2CCC(CN3CCCC3)CC2)cc(OC)c1OC,"inconclusive: 0.562 µM [inhibitor, full curve, poor fit]",–
COc1ccc(OCC(=O)OCc2cc(=O)n3cc(C)sc3n2)cc1,inactive,–
CCc1ccc(C(=O)NNC(=O)c2ccc(=O)n(C)n2)cc1,–,inconclusive: -30.3% [inhibitor]
Cc1c(Cl)ccc2c(C(=O)O)cc(-c3ccccc3)nc12,inactive,–
O=C(Cn1nnc(-c2ccc(Cl)cc2)n1)NCc1ccco1,"inconclusive: 12.6 µM [inhibitor, full curve, poor fit]",–
CC(=O)c1cccc(NC(=O)Cc2cccs2)c1,active: 31.6 µM,–

# (list continues)

Compound,Potency,"activity change, negative = inhibition"
COCCCNc1nc(N)c([N+](=O)[O-])c(Nc2cc(OC)ccc2OC)n1,inactive,–
CCCCCCCCCCCCN1C(=O)CSC1c1cccnc1 (centres undefined),"inconclusive: 79.4 µM [inhibitor, single point]",–
Fc1ccc(NCc2nnc(SCc3ccccc3)o2)cc1,"inconclusive: 79.4 µM [inhibitor, single point]",–
C/C(=N\N=C1\NC(=O)C(CC(=O)Nc2ccccc2F)S1)C1CCCCC1 (centres undefined),"inconclusive: 28.2 µM [inhibitor, single point]",–
O=C1CSC(=S)N1c1ccc(F)cc1,"inconclusive: 89.1 µM [inhibitor, single point]",–
O=C(O)c1cc(-c2ccc(/C=N/Nc3ccc(Cl)cc3)o2)ccc1Cl,inactive,–
COc1cc(C2C(=O)N(C3CCCCC3)CC(=O)N2Cc2ccc(C)cc2)ccc1OC(C)C (centres undefined),inactive,–
CCc1cc2c(=O)n(Cc3ccco3)c(SCc3c(C)noc3C)nc2s1,inactive,–
CCOC(=O)c1c(-c2ccc(Br)cc2)csc1NC(=O)c1ccccc1F,inactive,–
O=C(Nc1nnc(S(=O)(=O)N2CCOCC2)s1)c1ccccc1,"inconclusive: 20 µM [inhibitor, full curve]",–
O=c1ccc2c(o1)/C(=C/C=C(Cl)Cl)CCC2,active: 28.2 µM,–
C=CCn1c(SCC(=O)Nc2nc(C)cs2)nnc1C(CO)NC(=O)c1ccccc1 (centres undefined),"inconclusive: 1 µM [inhibitor, full curve]",–
c1coc(-c2ccnc3nc(-n4cccc4)nn23)c1,"inconclusive: 7.08 µM [inhibitor, full curve]",–
CC1=C(C(=O)OC(C)C)[C@@H](c2ccc(C)o2)NC(=O)N1,inactive,–
CC(C)(C)CC(C)(C)NC(=O)Nc1cccc([N+](=O)[O-])c1,"inconclusive: 22.4 µM [inhibitor, partial curve, poor fit]",–
COC(=O)C1=CN(C2CC2)C=C(C(=O)OC)C1c1ccc(C(F)(F)F)cc1,"inconclusive: 35.5 µM [inhibitor, single point]",–
Cn1c(=O)cc(SCC(=O)N2CCN(c3ccc(F)cc3)CC2)c2ccc(Cl)cc21,inactive,–
O=C(CN1C(=O)COc2ccc(S(=O)(=O)N3CCOCC3)cc21)NCc1ccc(F)cc1,"inconclusive: 8.91 µM [inhibitor, full curve, poor fit]",–
CCCCC(=O)Nc1ccc(C(=O)NNC(=O)CCc2ccccc2)cc1,"inconclusive: 3.98 µM [inhibitor, partial curve, poor fit]",–
Cc1ccc(-n2c(O)c(C=Nc3ccccc3-c3n[nH]c(=S)[nH]c3=O)c3ccccc3c2=O)c(C)c1,active: 89.1 µM,–
O=C(NCCc1ccccc1)/C(=C/c1ccco1)c1ccccc1,active: 35.5 µM,–
CNc1ccc(Br)cc(C(=O)/C=C/c2ccc3c(c2)OCO3)c1=O,active: 20 µM,–
NC1=NC(=O)/C(=C\c2ccc(O)c([N+](=O)[O-])c2)S1,"inconclusive: 89.1 µM [inhibitor, single point]",–
